Data as given in PubChem BioAssay AID1259405 (NCATS, 2018).
The whole screen tested about 50,000 reagents; below is a part drawn at random. Of all reagents, about 4,000 (8%) were called active. 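Mouse siRNA library applied to hamster cells; one well for each siRNA.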 Reagents against one gene are numbered here.

- Purpose: 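Knock-downs that lift recombinant protein yield in hamster ovary cells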 (primary screen)
- System: Chinese hamster CHO-K1 ovary cells with stable secreted eGFP expression
- Reagents: single siRNA against mouse genes, 0.8 pmol siRNA per well (2 µl of 400 nM stock)
- Duration: 3 days
- Measurement: 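Per-well intracellular GFP measured by laser scanning cytometry, plus viability from ATP luminescence, each relative to plate median of non-targeting control wells, in %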
- Direction: GFP, % of control: higher = more GFP per well, higher productivity; viability (ATP), % of control: higher = more viable cells (more ATP)
- Active means: 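Called active when intracellular GFP, relative to negative control, is at or above 120%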

no.	Gene	reagent no.	GFP, % of control	viability (ATP), % of control	Call
1	Rps19	1	47.8	29	inactive
2	Rps19	2	29.1	10.2	inactive
3	Rps19	3	111	75.3	inactive
4	Foxp3	1	61.6	77.5	inactive
5	Foxp3	2	47.5	48.7	inactive
6	Krtap19-3	1	75.5	82.9	inactive
7	Krtap19-3	2	70.6	59.5	inactive
8	Krtap19-3	3	173	85.2	active
9	Myo1e	1	74.3	65.2	inactive
10	Myo1e	2	91.2	120	inactive
11	Slc25a42	1	136	65.4	active
12	Slc25a42	2	94.9	64.1	inactive
13	Slc25a42	3	59.2	70.4	inactive
14	Tyrobp	1	189	80.3	active
15	Tyrobp	2	69	58.3	inactive
16	Tyrobp	3	63.1	78.1	inactive
17	Or1i2	1	53.3	49.7	inactive
18	Or1i2	2	102	71.1	inactive
19	Or1i2	3	47.5	45.1	inactive
20	Serpinb2	1	41.5	94.4	inactive
21	Serpinb2	2	66.7	66.6	inactive
22	Serpinb2	3	56.9	75.8	inactive
23	Riok1	1	79.5	69.8	inactive
24	Steap3	1	88.7	87.3	inactive
25	Steap3	2	122	102	active
26	Steap3	3	159	68.8	active
27	Sprr2a1	1	82.4	48.1	inactive
28	Sprr2a1	2	87.3	105	inactive
29	Sprr2a1	3	141	131	active
30	Hars1	1	105	78.4	inactive
31	Hars1	2	84.2	75.7	inactive
32	Hars1	3	137	80	active
33	Or5h24-ps1	1	63.3	43.2	inactive
34	Or5h24-ps1	2	143	72.9	active
35	Or5h24-ps1	3	55.2	88.2	inactive

The list goes on; the last 8 above are carried over.
no.	Gene	reagent no.	GFP, % of control	viability (ATP), % of control	Call
28	Sprr2a1	2	87.3	105	inactive
29	Sprr2a1	3	141	131	active
30	Hars1	1	105	78.4	inactive
31	Hars1	2	84.2	75.7	inactive
32	Hars1	3	137	80	active
33	Or5h24-ps1	1	63.3	43.2	inactive
34	Or5h24-ps1	2	143	72.9	active
35	Or5h24-ps1	3	55.2	88.2	inactive
36	Gcsam	1	55	62.9	inactive
37	Gcsam	2	53.6	49.6	inactive
38	Gcsam	3	107	47.1	inactive
39	A730089K16Rik	1	107	72.5	inactive
40	A730089K16Rik	2	45.2	112	inactive
41	A730089K16Rik	3	86.7	88.5	inactive
42	Olfml3	1	53.3	34.2	inactive
43	Olfml3	2	78.3	92.6	inactive
44	Olfml3	3	111	90.6	inactive
45	Ppp2r5b	1	206	85.1	active
46	Ppp2r5b	2	86.9	70.9	inactive
47	Ppp2r5b	3	58.5	64	inactive
48	Rnaseh2b	1	121	67.1	active
49	Rnaseh2b	2	51.1	47.5	inactive
50	Rnaseh2b	3	65.4	62	inactive
51	Or51ac3	1	29.6	45.8	inactive
52	Or51ac3	2	119	96.8	inactive
53	Or51ac3	3	72.1	88.1	inactive
54	Nop56	1	104	86.5	inactive
55	Nop56	2	91.8	96.3	inactive
56	Atp5po	1	67.9	61.8	inactive
57	Atp5po	2	119	113	inactive
58	Atp5po	3	80.6	80.4	inactive
